Reference: PubChem BioAssay (Tox21)
Several values for one entry are separate records, joined by “and”; a condition that tells them apart may be missing. Identical values can stand only once. The shares of active, inactive and inconclusive entries below differ from those in the screen. Potencies of inconclusive entries are doubtful fits and often do not repeat. More than one record can exist for a structure, and the calls need not agree. Activity calls are given as the source filed them. Calls come from the whole dose curve; as a rule, active = well fitted inhibition curve with a large enough effect in the repeat runs; inconclusive = weak or mixed curves; inactive = no such curve, though single readings can be large or run the other way.

Amino acid sequences for entries named in this document (tags omitted).
UniProt P10635, whole entry, looked up: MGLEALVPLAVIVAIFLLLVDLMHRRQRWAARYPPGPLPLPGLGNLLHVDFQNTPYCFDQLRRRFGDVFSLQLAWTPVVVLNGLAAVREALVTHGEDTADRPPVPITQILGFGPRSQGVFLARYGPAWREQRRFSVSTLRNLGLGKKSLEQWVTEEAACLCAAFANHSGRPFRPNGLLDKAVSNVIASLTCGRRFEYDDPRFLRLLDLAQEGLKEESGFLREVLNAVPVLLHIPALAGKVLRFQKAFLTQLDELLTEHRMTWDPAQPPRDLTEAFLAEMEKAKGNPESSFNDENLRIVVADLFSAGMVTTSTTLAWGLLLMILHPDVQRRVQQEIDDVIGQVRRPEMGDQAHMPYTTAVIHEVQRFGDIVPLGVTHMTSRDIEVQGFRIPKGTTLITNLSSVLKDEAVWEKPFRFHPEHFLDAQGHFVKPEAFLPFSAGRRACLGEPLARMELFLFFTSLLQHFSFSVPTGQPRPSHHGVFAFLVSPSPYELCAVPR

target: Cytochrome P450 2D6 (Homo sapiens) (UniProt P10635); test: Cytochrome P450 Family 2 Subfamily D Member 6 (CYP2D6) small molecule antagonists: luciferase reporter qHTS assay (AID 1671196); settings: P450-Glo CYP2D6 enzyme assay, luciferin luminescence, 1 h; series mostly up to 115 µM; activity change, negative = inhibition: at the top concentration; note: nearly all actives have a fitted effect of over 50% in size
Outline: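 CYP2D6 activity was followed as luminescence from its luciferin product after a 1 h NADPH-driven reaction at room temperature. Enzyme-substrate mix and compound were pre-incubated for 10 min, and the signal was read 20 min after adding detection reagent.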
% is set by controls: 0 for no effect and ±100 for the full control effect; potency is the fitted concentration of half-maximal effect.

| SMILES | Potency | activity change, negative = inhibition |
| --- | --- | --- |
| CCCCOCN(C(=O)CCl)c1c(CC)cccc1CC | inconclusive: 39.9 µM [inhibitor, partial curve] | – |
| C=COC(C)=O | inconclusive: 41.3 µM [inhibitor, partial curve] | – |
| Nc1nc(N)nc(NC2CC2)n1 | inconclusive: 101 µM [inhibitor, partial curve, poor fit] and inactive and inconclusive: 38.9 µM [inhibitor, single point] | – |
| CCOP(=S)(OCC)SCSCC | inconclusive: 63.3 µM [inhibitor, partial curve] | – |
| OC(c1ccc(Cl)cc1)(c1ccc(Cl)cc1)c1cccnc1 | active: 11.2 µM | – |
| CSCCCN=C=S | inconclusive: 71 µM [inhibitor, partial curve, poor fit] | – |
| c1csc(-c2ccc(-c3cccs3)s2)c1 | inconclusive: 63.3 µM [inhibitor, partial curve] | – |
| NCC(O)c1ccc(O)cc1 (stereo not drawn) | inconclusive: 62.3 µM [inhibitor, partial curve] | – |
| C=CC(=O)[O][Sn]([CH2]CCC)([CH2]CCC)[CH2]CCC | active: 1.26 µM | – |
| ClC(Cl)=C(Cl)Cl | – | inactive: 2.23% |
| CC(=O)O[C@H]1CC[C@@]2(C)C(=CC[C@@H]3[C@@H]2CC[C@]2(C)C(=O)CC[C@@H]32)C1 | – | inactive: -27% |
| CCC(C)Br (stereo not drawn) | inconclusive: 67.2 µM [inhibitor, partial curve, poor fit] | – |
| COP(=O)(O)OC | inconclusive: 41.4 µM [inhibitor, partial curve, poor fit] | – |
| CCCC[n+]1cccc(C)c1 | inconclusive: 64.2 µM [inhibitor, partial curve, poor fit] and inconclusive: 57.2 µM [inhibitor, partial curve, poor fit] | – |
| CN1CCC(O)(c2ccc(F)cc2)C(C(=O)c2ccc(F)cc2)C1 (stereo not drawn) | active: 17.4 µM | – |
| CC1CCCC1 | – | inactive: -18.1% |
| O=NN1CCCCC1 | – | inactive: -10.6% |
| CC(=O)Nc1ccc2c(c1)Cc1ccccc1-2 | inconclusive: 72.1 µM [inhibitor, partial curve] | – |
| O=C([O-])c1ccccn1.O=C([O-])c1ccccn1.O=C([O-])c1ccccn1.[Cr+3] | active: 79.9 µM | – |

| SMILES | Potency | activity change, negative = inhibition |
| --- | --- | --- |
| CCCCOCCOP(=O)(OCCOCCCC)OCCOCCCC | inconclusive: 28.3 µM [inhibitor, partial curve, poor fit] and inconclusive: 35.6 µM [inhibitor] | – |
| CC(=O)C(Cl)(Cl)Cl | inconclusive: 68.6 µM [inhibitor, partial curve] | – |
| CNC(C)Cc1ccc2c(c1)OCO2 (stereo not drawn) | active: 0.491 µM | – |
| O=C(Nc1ccccc1-c1ccc(Cl)cc1)c1cccnc1Cl | active: 30.4 µM | – |
| CC(C)C(Nc1ccc(C(F)(F)F)cc1Cl)C(=O)OC(C#N)c1cccc(Oc2ccccc2)c1 (stereo not drawn) | inconclusive: 40.2 µM [inhibitor, partial curve] | – |
| O=C(CCl)CCl | inconclusive: 56.4 µM [inhibitor, partial curve, poor fit] | – |
| Brc1ccc(Oc2cc(Br)c(Br)cc2Br)c(Br)c1 | active: 35.6 µM | – |
| Cc1cccc(C)c1NC(=O)CN1CCCC1=O | inactive | – |
| COP(=O)(OC)OC=C(Cl)Cl | inconclusive: 34.7 µM [inhibitor, partial curve] | – |
| O=C(O)COc1ccc(Cl)cc1 | – | inactive: -13.6% |
| c1ccc(P(c2ccccc2)c2ccccc2)cc1 | inconclusive: 40.7 µM [inhibitor] and inconclusive: 35.6 µM [inhibitor, partial curve] | – |
| Clc1ccc(C(c2ccccc2Cl)C(Cl)(Cl)Cl)cc1 (stereo not drawn) | inconclusive: 63.7 µM [inhibitor, partial curve] | – |
| CN=CNc1ccc(C)cc1C | – | inactive: -8.24% |
| O=[N+]([O-])c1cc(C(F)(F)F)c(Cl)c([N+](=O)[O-])c1Nc1ncc(C(F)(F)F)cc1Cl | inconclusive: 35.6 µM [inhibitor, partial curve] | – |
| CSc1nnc(C(C)(C)C)c(=O)n1N | inconclusive: 71 µM [inhibitor, partial curve] | – |
| FC(Cl)(Cl)C(F)(Cl)Cl | – | inactive: -1.64% |
| BrCC(Br)(Br)Br | – | inactive: -4.93% |
| O=C(O)c1cc(I)cc(I)c1I | inconclusive: 85.9 µM [inhibitor, single point] | – |
| BrC(Br)Br | active: 25.2 µM | – |
